Read-outs that look alike come from different tables or passages of the source. Results are given in words; binding and its absence hold for the method and conditions named. For some of these results: In cells and extracts the contact can be indirect. Some entries that bind do so weakly or less than the wild type. For some of these results: Sequences can lack the tags named with a protein.
T1: serine/arginine-rich 45 (SR45), SR45.1 isoform (Arabidopsis thaliana) (UniProt Q9SEE9)
T1 sequence: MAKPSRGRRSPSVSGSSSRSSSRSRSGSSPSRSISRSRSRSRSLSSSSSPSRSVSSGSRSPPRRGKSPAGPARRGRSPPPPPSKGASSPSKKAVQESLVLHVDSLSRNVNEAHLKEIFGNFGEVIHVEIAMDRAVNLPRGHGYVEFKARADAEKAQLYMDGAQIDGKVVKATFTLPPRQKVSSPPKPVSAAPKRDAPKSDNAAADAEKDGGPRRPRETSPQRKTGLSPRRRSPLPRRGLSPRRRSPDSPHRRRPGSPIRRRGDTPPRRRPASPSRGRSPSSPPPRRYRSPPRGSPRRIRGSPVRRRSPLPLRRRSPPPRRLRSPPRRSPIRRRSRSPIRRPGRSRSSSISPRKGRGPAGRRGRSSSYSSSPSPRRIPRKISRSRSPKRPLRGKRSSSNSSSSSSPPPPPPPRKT

Chains of the proteins cited; added tags and fusions are not shown.
UniProt Q94A52, whole entry: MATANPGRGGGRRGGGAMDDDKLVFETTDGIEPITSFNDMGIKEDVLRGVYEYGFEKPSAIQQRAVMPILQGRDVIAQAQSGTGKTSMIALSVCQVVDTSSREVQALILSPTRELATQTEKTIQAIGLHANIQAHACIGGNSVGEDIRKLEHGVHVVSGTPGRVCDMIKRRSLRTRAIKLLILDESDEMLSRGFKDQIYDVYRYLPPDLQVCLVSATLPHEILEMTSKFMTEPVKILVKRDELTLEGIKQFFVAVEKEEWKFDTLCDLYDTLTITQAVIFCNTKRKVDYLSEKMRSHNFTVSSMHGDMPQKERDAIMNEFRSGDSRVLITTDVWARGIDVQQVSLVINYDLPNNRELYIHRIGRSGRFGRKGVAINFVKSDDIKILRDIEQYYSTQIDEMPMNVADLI

T2: SR45mutRRM (Arabidopsis thaliana) (UniProt Q9SEE9)
T2 sequence: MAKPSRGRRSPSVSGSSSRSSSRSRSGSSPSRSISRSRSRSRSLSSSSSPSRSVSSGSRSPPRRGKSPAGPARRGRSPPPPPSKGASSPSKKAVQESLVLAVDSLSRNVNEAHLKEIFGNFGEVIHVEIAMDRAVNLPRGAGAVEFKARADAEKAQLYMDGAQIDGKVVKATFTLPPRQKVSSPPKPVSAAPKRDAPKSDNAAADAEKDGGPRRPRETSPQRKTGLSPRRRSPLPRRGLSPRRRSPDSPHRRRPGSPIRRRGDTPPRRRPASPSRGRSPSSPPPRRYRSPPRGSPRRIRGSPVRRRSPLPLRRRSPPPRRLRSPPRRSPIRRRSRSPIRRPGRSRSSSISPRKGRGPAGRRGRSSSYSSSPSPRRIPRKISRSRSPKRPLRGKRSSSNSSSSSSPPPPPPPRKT

T3: SR45mutRRM fused to CYFP (Arabidopsis thaliana) (UniProt Q9SEE9)
T3 sequence: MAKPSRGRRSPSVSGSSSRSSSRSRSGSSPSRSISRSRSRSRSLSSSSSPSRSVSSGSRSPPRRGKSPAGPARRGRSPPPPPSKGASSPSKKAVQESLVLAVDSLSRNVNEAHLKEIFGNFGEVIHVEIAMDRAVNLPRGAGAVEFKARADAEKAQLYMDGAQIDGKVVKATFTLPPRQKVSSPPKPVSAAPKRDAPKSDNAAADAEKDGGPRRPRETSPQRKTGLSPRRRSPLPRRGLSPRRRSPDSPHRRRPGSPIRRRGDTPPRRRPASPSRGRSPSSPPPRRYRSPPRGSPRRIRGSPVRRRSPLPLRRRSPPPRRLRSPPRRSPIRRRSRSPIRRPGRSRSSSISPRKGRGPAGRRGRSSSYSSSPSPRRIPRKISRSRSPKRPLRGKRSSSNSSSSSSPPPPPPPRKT

T4: SR45:CYFP (Arabidopsis thaliana) (UniProt Q9SEE9)
T4 sequence: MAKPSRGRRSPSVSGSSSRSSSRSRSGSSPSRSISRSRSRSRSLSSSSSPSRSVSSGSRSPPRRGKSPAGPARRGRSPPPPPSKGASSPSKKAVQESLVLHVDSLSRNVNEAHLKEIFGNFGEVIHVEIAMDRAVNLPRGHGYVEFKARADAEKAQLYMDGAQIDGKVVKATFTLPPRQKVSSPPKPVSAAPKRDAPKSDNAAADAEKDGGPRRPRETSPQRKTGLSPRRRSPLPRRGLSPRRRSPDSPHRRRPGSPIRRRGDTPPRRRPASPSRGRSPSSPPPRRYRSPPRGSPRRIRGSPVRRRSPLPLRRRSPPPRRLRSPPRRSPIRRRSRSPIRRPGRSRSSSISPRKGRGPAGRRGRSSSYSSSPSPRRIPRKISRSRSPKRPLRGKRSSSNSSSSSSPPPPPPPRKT


What was measured:
[1] = biological target: T1, serine/arginine-rich 45 (SR45), SR45.1 isoform (Arabidopsis thaliana); assay: two-hybrid
[2] = biological target: T1, serine/arginine-rich 45 (SR45), SR45.1 isoform (Arabidopsis thaliana); assay: two-hybrid; remark: listed apart in the source
[3] = biological target: T2, SR45mutRRM (Arabidopsis thaliana); assay: two-hybrid
[4] = biological target: T3, SR45mutRRM fused to CYFP (Arabidopsis thaliana); assay: split reporter
[5] = biological target: T4, SR45:CYFP (Arabidopsis thaliana); assay: split reporter
[6] = biological target: T1, serine/arginine-rich 45 (SR45), SR45.1 isoform (Arabidopsis thaliana); assay: two-hybrid; remark: listed apart in the source

Row | Molecule | binding [2] | binding [3] | also measured
1 | eukaryotic initiation factor 4A3 (eIF4AIII) (from UniProt Q94A52 1-408) |  |  | binding [1]: no binding
2 | RZ-1B (protein, UniProt O22703 1-292) MKDRENDGNLESRIFVGGLSWDVTERQLESTFDRYGKITECQIMVGRDTGRPRGFGFITFTDRRGADDAIKHMHGRELGNKVISVNKAEPKVGGEDVDQLKKGGGYSSRGKGTEDECFKCRRPGHWARDCPSTGDDRERFRVPLAMRSRIGDIDGHRDRYGDRDLEREREREREFDRYMDGRRDRDGGRYSYRDRFDSGDKYEPRDHYPFERYAPPGDRFVSDRYGMPEHHLENEYRGRERSYDRDRYARDTSDRYGDMGPIRDEGRPYRSRPGPYDRPSRPGGRPSSYERW | binds | binds weakly | 
3 | Cyp59 (protein, UniProt Q6Q151 1-506) MSVLIVTSLGDIVIDLHSDKCPLTCKNFLKLCKIKYYNGCLFHTVQKDFTAQTGDPTGTGAGGDSIYKFLYGEQARFYKDEIHLDLKHSKTGTVAMASGGENLNASQFYFTLRDDLDYLDGKHTVFGQIAEGFDTLTRINEAYVDPKNRPYKNIRIKHTHILDDPFDDPPQLAEMMPDASPEGKPKEEVKDDVRLEDDWVPMDEELGAQELEEVIREKAAHSSAVVLESIGDIPEAEVKPPDNVLFVCKLNPVTEDEDLHTIFSRFGTVVSADVIRDFKTGDSLCYAFIEFENKESCEQAYFKMDNALIDDRRIHVDFSQSVSKLWSQFRQKDSQKGKGNGCFKCGSTDHIAKDCVGGPSSKFIVKDQNRQHGGGEGYEMVFEGDVHETPKHNSHERERSEKIQRRSPHGNGEGKRQHRDERDDGRRQHDREDARELERKHRERKERESREDEDRRRRRRREESRDKESRRERDEDDHRSHRDYKERRRERDDRHGREARHERRDR | binds | no binding | 
4 | SR34:NYFP (protein, UniProt O22315 1-303) MSSRSSRTVYVGNLPGDIREREVEDLFSKYGPVVQIDLKVPPRPPGYAFVEFDDARDAEDAIHGRDGYDFDGHRLRVELAHGGRRSSDDTRGSFNGGGRGGGRGRGDGGSRGPSRRSEFRVLVTGLPSSASWQDLKDHMRKGGDVCFSQVYRDARGTTGVVDYTCYEDMKYALKKLDDTEFRNAFSNGYVRVREYDSRKDSRSPSRGRSYSKSRSRSRGRSVSRSRSRSRSRSRSPKAKSSRRSPAKSTSRSPGPRSKSRSPSPRRSRSRSRSPLPSVQKEGSKSPSKPSPAKSPIHTRSPSR |  |  | binding [4]: binds; binding [5]: binds
5 | RS2Z32 (arginine/serine-rich zinc knuckle-containing protein 32) (protein, UniProt Q9FYB7 1-284) MPRYDDRYGNTRLYVGRLSSRTRTRDLERLFSRYGRVRDVDMKRDYAFVEFSDPRDADDARYYLDGRDFDGSRITVEASRGAPRGSRDNGSRGPPPGSGRCFNCGVDGHWARDCTAGDWKNKCYRCGERGHIERNCKNSPSPKKARQGGSYSRSPVKSRSPRRRRSPSRSRSYSRGRSYSRSRSPVRREKSVEDRSRSPKAMERSVSPKGRDQSLSPDRKVIDASPKRGSDYDGSPKENGNGRNSASPIVGGGESPVGLNGQDRSPIDDEAELSRPSPKGSESP | binds |  | binding [6]: binds
6 | MOS12 (MODIFIER OF SNC1-1, 12) (protein, UniProt Q8RWV3 1-416) MIYTAIDNFYLSDEQLKASPSRKDGIDETTEISLRIYGCDLIQEGGILLKLPQAVMATGQVLFQRFYCKKSLAKFDVKIVAASCVWLASKLEENPKKARQVIIVFHRMECRRENLPLEHLDMYAKKFSELKVELSRTERHILKEMGFVCHVEHPHKFISNYLATLETPPELRQEAWNLANDSLRTTLCVRFRSEVVACGVVYAAARRFQVPLPENPPWWKAFDADKSSIDEVCRVLAHLYSLPKAQYISVCKDGKPFTFSSRSGNSQGQSATKDLLPGAGEAVDTKCTAGSANNDLKDGMVTTPHEKATDSKKSGTESNSQPIVGDSSYERSKVGDRERESDREKERGRERDRGRSHRGRDSDRDSDRERDKLKDRSHHRSRDRLKDSGGHSDKSRHHSSRDRDYRDSSKDRRRHH | binds |  | binding [6]: binds
7 | ALY4 (protein, UniProt Q6NQ72 1-288) MSGALNMTLDEIVKRGKTARSGGRGISRGRGRGRGGGGRGAGPARRGPLAVNARPSSFTINKPVRRVRSLPWQSGLFEDGLRAAGASGVEVGTRLHVTNLDQGVTNEDIRELFSEIGEVERYAIHYDKNGRPSGTAEVVYPRRSDAFQALKKYNNVLLDGRPMRLEILGGNNSSEAPLSGRVNVNVTGLNGRLKRTVVIQQGGGGRGRVRGGRGGRGPAPTVSRRLPIHNQQGGGMRGGRGGFRARGRGNGGRGRGGGRGNGKKPVEKSAADLDKDLESYHADAMNTS | binds | binds weakly | 

Second part, led by results:

Row | binding [2] | binding [3] | Molecule | also measured
8 | binds | binds | AFC2 (enzyme, UniProt P51567 1-427) MEMERVHEFPHTHMDRRPRKRARLGWDVLPQATKAQVGMFCGQEIGNISSFASSGAPSDNSSSLCVKGVARNGSPPWREDDKDGHYIFELGDDLTPRYKIYSKMGEGTFGQVLECWDRERKEMVAVKIVRGVKKYREAAMIEIEMLQQLGKHDKGGNRCVQIRNWFDYRNHICIVFEKLGSSLYDFLRKNNYRSFPIDLVREIGWQLLECVAFMHDLRMIHTDLKPENILLVSSDYVKIPEYKGSRLQRDVCYKRVPKSSAIKVIDFGSTTYERQDQTYIVSTRHYRAPEVILGLGWSYPCDVWSVGCIIVELCTGEALFQTHENLEHLAMMERVLGPFPQQMLKKVDRHSEKYVRRGRLDWPDGATSRDSLKAVLKLPRLQNLIMQHVDHSAGELINMVQGLLRFDPSERITAREALRHPFFARRR | 
9 | binds | binds weakly | RZ-1C (protein, UniProt Q8RWN5 1-310) MAAKEGSRIFVGGLSPEVTDRDLERAFSRFGDILDCQIMLERDTGRSRGFGFITFADRRAMDESIREMHGRDFGDRVISVNRAEPKLGRDDGESHGSRGGRDSGYSIAGKGSFGGGGGGGGRVGEDECFKCGRVGHWARDCPSAGGGRGGPVGGFSSRASAYGGSDGRVDRYADRDRYVDRERYIDDRYDGAARYGARDRFDSREAYIPRDRYASDRYAAPADRFAGGDRYSRGSDRYPPGSYDKARSFERDIAPSAGSDRYGGGRAGGPIRGGGEEGRGFRSRAGAPYERPSRSGGGGAYPSSSTFDRY | 
10 | binds | binds weakly | PRP38 (Pre-mRNA Processing factor 38) (protein, UniProt Q8LB54 1-355) MANRTDPLAKNIRGTNPQNLVEKIVRTKIYQHTFWKEQCFGLTAETLVDKAMELDHLGGTFGGSRKPTPFLCLILKMLQIQPEKEIVVEFIKNDDYKYVRILGAFYLRLTGTDVDVYRYLEPLYNDYRKVRQKLSDGKFSLTHVDEVIEELLTKDYSCDIAMPRLKKRWTLEQNGLLEPRKSVLEDDFEEEEEKEENEGIADGSEDEMDQRRKSPERERERDRDRRRDSHRHRDRDYDRDYDMDRDHDRDYERERGHGRDRDRERDRDHYRERDRDRERGRDRERDRRDRARRRSRSRSRDRKRHETDDVRDREEPKKKKEKKEKMKEDGTDHPNPEIAEMNRLRASLGMKPLRD | binding [6]: binds
11 | binds | no binding | CypRS92 (protein, UniProt Q8RWY7 1-837) MAKKKNPQVFMDVSIDGDPAETMVFELFPEVAPKTSENFRALCTGEKGIGPRSGKPLHYKGSFFHRIMKGSSAQAGDFVNRNGTAGESIYAGKFPDESPKLRHEETGLLSMSIADRDKFGSHFHITFRPNQQLDRNNVVFGKLIQGKEILKKIERVGDEEGKPTVSVKIIRCGEYSGDKKKSDGKKNGKHKKSLRVRRKKRRRHSSSESESSSDSETDSSESDSESDSDLSSPSFLSSSSHERQKKRKRSSKKDKHRRSKQRDKRHEKKRSMRDKRPKRKSRRSPDSLEDSNSGSEASLSDVNVEIGAKKRKHRVSRRTGNSAPAVEKEAESLHQGKRKGPDLLENRGLRSNGISDAASEQISDRQPDIVDDHPSKSRSRSLSPKRTVSKSTSVSPRRSQSKSPSSSPRWNGGRSPAKGSRQVKNLTNSRRESPGSEEKGRHVRRSPTKSVSRSPVRVKKERDISRSPSKSLSRSPLRSPKRVISRSPVRGRIARSPSRSPVRSASRGSLGRGPLRRSSRRSPSRSPVRSSRRSLSRSPIQLSRRSLSRSPTRLSRRSLSRSPIRSPRKSVSRSPVRSSRKSVSRSPVRSSRRRISRSPVRSSRKSVSRSPIRLSRRSISRSPIRLSRRSISRSPVRGRRRISRSPVPARRRSVRPRSPPPDRRRSLSRSASPNGRIRRGRGFSQRFSYARRYRTSPSPDRSPYRFSDRSDRDRFRSRRRFSPSRFRSPLRGRTPPRYRRRSRSVSPGLCYRNRRYSRSPIRSRSPPYRKRRSPSASHSLSPSRSRSRSKSYSKSPIGTGKARSVSRSPSKARSPSKSDSTSSDNSPGGKKGLVAYD | 

Reference: paper doi:10.1101/2023.08.07.552250
